Assay [1] deals with T1, Calretinin (CR), endogenous in MSTO-211H wt cells (human (endogenous in MSTO-211H)) (UniProt P22676).
T1 sequence: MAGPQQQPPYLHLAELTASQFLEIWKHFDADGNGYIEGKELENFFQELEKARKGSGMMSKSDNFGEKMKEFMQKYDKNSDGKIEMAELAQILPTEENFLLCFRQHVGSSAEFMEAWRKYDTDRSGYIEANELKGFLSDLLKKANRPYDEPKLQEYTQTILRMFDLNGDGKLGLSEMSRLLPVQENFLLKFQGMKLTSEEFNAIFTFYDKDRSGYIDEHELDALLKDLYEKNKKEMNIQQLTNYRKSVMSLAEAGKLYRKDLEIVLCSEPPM
Nature of the assay: co-IP; Cell lysates (SPC111-CR, MSTO-CR, MSTO wt; 150 mM NaCl, 1% Triton X-100, 50 mM Tris HCl pH 8.0, protease and phosphatase inhibitors); CR precipitated with anti-CR antiserum CR 7699/4 and protein A MicroBeads, 4°C; washes with 150 mM NaCl, 1% NP-40, 0.5% sodium deoxycholate, 0.1% SDS, 50 mM Tris HCl pH 8.0; Western blot with anti-FAK; normal rabbit IgG as negative IP control.

By UniProt entry, the sequences of proteins in these tests, tags left out.
UniProt Q05397: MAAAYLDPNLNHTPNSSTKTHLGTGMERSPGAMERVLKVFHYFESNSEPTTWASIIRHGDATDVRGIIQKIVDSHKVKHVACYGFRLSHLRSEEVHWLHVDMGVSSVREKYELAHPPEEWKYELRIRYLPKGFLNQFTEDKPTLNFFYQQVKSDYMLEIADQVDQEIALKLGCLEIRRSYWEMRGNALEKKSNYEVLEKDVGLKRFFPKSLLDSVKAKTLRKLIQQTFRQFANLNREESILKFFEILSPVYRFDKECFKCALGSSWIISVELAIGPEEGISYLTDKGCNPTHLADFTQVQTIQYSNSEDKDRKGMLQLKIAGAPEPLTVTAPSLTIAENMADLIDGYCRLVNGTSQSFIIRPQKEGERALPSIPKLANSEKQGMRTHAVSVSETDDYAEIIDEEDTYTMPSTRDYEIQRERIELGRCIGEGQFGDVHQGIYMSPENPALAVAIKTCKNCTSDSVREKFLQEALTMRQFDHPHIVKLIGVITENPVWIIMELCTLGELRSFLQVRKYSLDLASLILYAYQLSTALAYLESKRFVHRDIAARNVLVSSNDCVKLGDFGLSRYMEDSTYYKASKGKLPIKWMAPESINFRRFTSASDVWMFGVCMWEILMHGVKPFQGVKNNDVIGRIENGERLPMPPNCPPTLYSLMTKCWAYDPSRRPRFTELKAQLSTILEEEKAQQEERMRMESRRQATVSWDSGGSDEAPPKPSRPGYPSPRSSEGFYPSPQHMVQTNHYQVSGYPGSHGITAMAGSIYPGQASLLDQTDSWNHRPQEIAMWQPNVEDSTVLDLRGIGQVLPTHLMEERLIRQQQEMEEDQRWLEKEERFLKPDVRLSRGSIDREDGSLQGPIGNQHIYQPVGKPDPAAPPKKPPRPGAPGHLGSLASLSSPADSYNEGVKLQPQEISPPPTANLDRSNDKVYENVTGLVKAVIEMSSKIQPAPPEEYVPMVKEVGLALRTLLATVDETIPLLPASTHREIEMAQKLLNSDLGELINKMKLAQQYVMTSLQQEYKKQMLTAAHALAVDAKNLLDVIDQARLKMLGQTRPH

Assay [2] concerns the target T2, Calretinin (CR), lentivirally overexpressed from pLV-CALB2 (UniProt P22676).
T2 sequence: T1 sequence
The description is as above.

These are yes or no findings as the source states them, for the method shown. Binding seen in cells or lysates may run through a third protein. Some entries that bind do so weakly or less than the wild type.

Turning to “Focal adhesion kinase (FAK) (from UniProt Q05397 1-1052)”, the binding result in assay [1] and in assay [2] was “binds” in each case.

The values are drawn from PMC6284738.
